The text below walks through data of PubChem BioAssay AID1347423 (Functional Genomics Laboratory (NCATS/FGL), 2020).

Out of some 52,000 sequences screened, about 210 (0.4%) were called active.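 How the source made its calls: active means gene whose silencing raises cell survival under the drug, median off-target-corrected z-score across its silencing RNAs 2 or more; inactive means the rest.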 The list shows a part of the results.

A short description of the test: Resistance to Poly (ADP-Ribose) Polymerase inhibitor: Gene Identification via Genome-wide siRNA Screen. As to conditions: mouse BRCA2 R2336H ES cells, olaparib, CellTiter-Glo viability; hits give high values. The gist of the method: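 Mouse BRCA2 R2336H ES cells were reverse-transfected with siRNA (20 nM final), treated at 48 h with 500 nM olaparib, and read by CellTiter-Glo after 72 h. Scores: MAD-based z per siRNA, median per gene, seed off-target correction.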
In the case of GGGUGUUCCUUAUACAGUUTT against Zfp524, the z-score was inactive: -1.3. Take GGGUGAUGAUCUUCAGCAATT against Txnrd3: the z-score is inactive: -0.332. In the case of CCUAAAGUCUGAAUGUUCCTT against Il3 it was inactive: 0.306; in that of CGAGAGAUGUAACAAAAAGTT against Sele, inactive: 1.14. In the case of GGUUUUUGAACUGGUAAGATT against Olfr725, the z-score was inactive: -0.788. Take GGAAAAACAAGCAUUAGGUTT against BC052066: the z-score was inactive: -0.0768. In the case of GGACUCUCAGAAGAAUGAUTT against Hmmr, the z-score is inactive: 0.644.

Turning to GCUGAAGCAUGCCCGUAAUTT against Racgap1, the z-score was inactive: -0.414. Turning to “GGGACUCAAAAGUCAAGUGTT against D5Ertd577e”, the z-score is inactive: 0.686.

As to GUGACUCCCAAACUCCUGATT against Olfr1180, the z-score was inactive: -2.02. In the case of “GGCUUCUGGUACAUUAUUGTT against 9230112J07Rik” it was inactive: -1.17; in that of “GGGAAGGAUGACCUAACAATT against 2610029K21Rik”, inactive: -1.56; in that of “GGCUGGCUUGCUUGUAAUATT against 1700001C02Rik”, inactive: -0.371. For CCAAAGUGGACACAAUUGCTT against Ephb6 the value was inactive: 0.262; for GGCCCACAAGUACCGUUACTT against Gcat, inactive: -0.0833. For “CGAGUCUAUAAACCUCAAATT against 2310002A05Rik” the value was inactive: 0.482; for “GGUAAGCUCCAAUUAUGCCTT against A130030D10Rik”, inactive: 0.611. With GGAGAAGUCAUGAAACAAATT against Park2, the z-score is inactive: 0.943. As for GCUGUUAACUUGGAAGACUTT against Fut11, the z-score was inactive: 0.967.

In the case of GGAGAAGAAAGUGUUGAAATT against Klhdc4, the z-score is inactive: 0.61. For CCUGAUCACCAGAUGCUGATT against Sprr1a, the z-score was inactive: 0.745. Take “GGAAAUUGGGACUCACAUCTT against 2410002O22Rik”: the z-score was inactive: -0.618. In the case of GCUUCCUACGGUGUGUCAATT against Hnrpu, the z-score is inactive: -0.423. For the sequence “GCGUGGAAAUCAACUUACATT against 4933417A14Rik”, the z-score was inactive: -0.661. For GGAUGUUGAUCUGACUCACTT against Ppp1r7 the value was inactive: -1.4; for AUAUAUGCUUACCUUGCUATT against Ubl5, inactive: 0.0811. For CCAGUCCUACUUAGCAAAGTT against BC046404 the value was inactive: 1.34; for GCAGUCUUAAUUCAUGGUGTT against Slco6c1, inactive: -0.609; for GGCAGCCAAGAAAAUGUUATT against Gstt2, inactive: -0.789. As to GCGGAAAAGGGAGUUGCCUTT against Hand1, the z-score was inactive: 1. With GCUCUAUGUCAGAAACCAGTT against C4bp, the z-score is inactive: -0.818. For CCUUUGGUGAAGCCUGGAUTT against Kiss1 the value was inactive: 0.0368; for GCCAGUCUGGAGUUGCUUUTT against Timm23, inactive: -2.4. On to GCUUUGUAACCGUCCUCCATT against Ftl1, for which the z-score was inactive: -0.694.

Take GCUACAGUCUCUUUUAGCATT against Dnclic1: the z-score is inactive: 0.608. For GCCCGACAUAGAAUUCACCTT against Ncor2, the z-score was inactive: 1.23. In the case of GGAAACAAGGAAGCAAUUATT against Psmd1 it was inactive: -3.7.

In the case of GGCAAUGUAUUAAUUACAGTT against Otc, the z-score is inactive: 0.415. In the case of GGUAGCUCUGAGACAAUUCTT against Pkhd1l1 it was inactive: -0.669.

Take CCUGAUGUUUACUAUAAACTT against Atp6v1g3: the z-score was inactive: 0.819. CGGAUACAGGUUCGGGUAATT against BC030440: the z-score is inactive: -0.942. For “GGCUUGAUGAAUAUUCCAUTT against 2310021H06Rik” the value was inactive: -1.23; for “GGACGAGGAAAAGUCAUCATT against 4930579C12Rik”, inactive: -0.848.

For “GAACGACAACCCGAUAAUGTT against 2210019E14Rik”, the z-score was inactive: 0.943. As to GGGCUUCCCUUACAAAAGGTT against Padi3, the z-score is inactive: 0.789.

For the sequence GGACACAGGGUCUCUUACATT against Msrb, the z-score was inactive: 0.871. Regarding GGCCAGUUCCUUCUAGACUTT against Abhd1, the z-score was inactive: -0.224.

As for GGCAUUGAAGCAUCUGUUCTT against Ly78, the z-score was inactive: -0.167.

On to GGAACCACUGCUUUCAAAATT against Cd36, for which the z-score was inactive: -0.0235. For GGAGCCACUGGAAAAUUUATT against AI507211 the value was inactive: 0.177. For the sequence GGCACAGAUACAUCAAAUATT against Spag9, the z-score was inactive: -0.685. For “GGUACCAUGAAGGAUUUAUTT against 6330415F13Rik”, the z-score was inactive: -0.515. In the case of GGACUUGGAAAAUAAGGAATT against Usp38 it was inactive: -1.16. In the case of “GGGAUGCAUUAUUAUUUACTT against 4632417D23” it was inactive: 0.676; in that of GGGAGAGGAAGAAAAUAAATT against AU022870, inactive: -0.995; in that of GGACUUUAAUCACAGACAATT against Fem1b, inactive: -0.572. Turning to GCUAAGUCCCAGCUAAGUUTT against D4Ertd22e, the z-score was inactive: -0.958. In the case of GCCAAACACUUUAUGCGACTT against Ndst4 it was inactive: -0.165; in that of GGCGCAAGUUUGAUUUUGATT against Perq1, inactive: 0.384. In the case of GGACACUUUCAGACCUUAGTT against Ankrd27 it was inactive: -2.02; in that of CCAGUCAACAAGAAUCAGATT against Rptn, inactive: -0.569; in that of GGAUCCUGUCCACAAGCACTT against Astn1, inactive: 0.58. In the case of GGAGACACAAAAGAAGAUATT against Sec14l4 it was inactive: -0.672; in that of “CCCUGAUUGCAUCCUGUUATT against A430093F15Rik”, inactive: -0.263; in that of GCAGUAAAUGUCCCAUCCGTT against Caskin1, inactive: 1.06. Turning to GGGAAAUCAAGGAACUUAATT against Lrrfip1, the z-score was inactive: -1.98. In the case of GGAUGCAUCUAGCUUCACATT against BC016548 it was inactive: -0.0982; in that of GGACAGAUACUUUUGAUGATT against Zfp386, inactive: 0.423; in that of GGCUUUCACCUUAAUUGAUTT against Fntb, inactive: 0.0877. For the sequence GGUGAAGAAGAUGUGGACUTT against Pthr2, the z-score was inactive: 1.02.

Regarding GGAACUUGACAAAGUCUACTT against Panx1, the z-score was inactive: -0.0295. As to “GGUUGUUUUUUGAUACUGATT against 4732496O08Rik”, the z-score was inactive: -1.02. GCCAUUUGUUUAUGGAGGCTT against Spint2: the z-score was inactive: -0.243. In the case of CGGGUCGUCUCCUUACACATT against Prdm8 it was inactive: 0.964; in that of “GGCUUUAGCAAUGGAAAAUTT against 9130019P20Rik”, inactive: -0.235; in that of GGCAAUGAGAUCAGUCCACTT against Gzmc, inactive: -0.078. In the case of CCAAAGAUACCAUAGGAUUTT against BC036563 it was inactive: 1.63; in that of “GGAAGAAGUAGACCUGUCUTT against 0610011L14Rik”, inactive: -2.12; in that of GGAUCAGAAGAAGUUUAUUTT against Parn, inactive: 0.837. With GGAAUUGAAUGGAAAGUGUTT against Ggta1, the z-score was inactive: -0.934. In the case of “GGAAUCAACGGAUGAAAUUTT against 4732493F09Rik” it was inactive: -1.16; in that of GGUCUAUGAGAUGUUUUCUTT against Cyp2a4, inactive: 0.123.

For the sequence GGGUAGCUACGAAGAGGAATT against Ros1, the z-score was inactive: -0.158.

Turning to “GGUUCUCAUGUUGUUGGCUTT against 1600014C10Rik”, the z-score is inactive: -0.116. In the case of CGAGAGUAGCUUGUUGCUGTT against Rhobtb3 it was inactive: 0.999; in that of GCACAACAUUAAAUGCAGATT against Hspa4, inactive: -0.25. For GGAAGAAACUAACCACAACTT against Zfpn1a1, the z-score is inactive: 0.351. For GGAGUGAAGACUUUGAGAATT against Kcnn2 the value was inactive: -0.234; for GGUGAAGUCCAGUAAUAAGTT against Nfrkb, inactive: 0.449. Turning to CCUCAUCAAAAUUUACCAUTT against Msr2, the z-score was inactive: -0.388. For GGGACUCCUCAAUGCUUAUTT against Nxf3 the value was inactive: 0.0566. On to GGAAACUCGUACUUUAUCATT against Igf2r, for which the z-score was inactive: 1.13.

As for CCACUGUUAUCAAGAUCCCTT against Olfr1176, the z-score is inactive: -0.0434. In the case of GGAACAUCUAUUUGUCAUGTT against Olfr310 it was inactive: -0.42; in that of GGAUAGUCUCCUCAAAGAATT against Rg9mtd3, inactive: -1.71; in that of GCUGGAAAAAAAGUUGGAUTT against Diap1, inactive: 0.155.

As for GGUAGUGGUACACCUUAAGTT against Ctsc, the z-score is inactive: -1.94. Consider “GGACAACACUAUCAACAAATT against 1700028P05Rik”, for which the z-score is inactive: 1.43. For the sequence GGAGCAUAUAUAGAAUUAGTT against Mrps22, the z-score is inactive: 0.698. In the case of GGGUAUGUGAGUUGGAAGATT against Inpp4a it was inactive: -0.123.

CGACAGACAUCGCUAUAAUTT against Flj39647: the z-score is inactive: -2.11. For CCGCAUGUUUGGAAAGGAUTT against Cabp4 the value was inactive: 0.0393; for GGAUUCUGCCCAAUGAGGATT against Inpp5d, inactive: -1.43; for GGUGUUGUUGCUGAUACCUTT against Rbms3, inactive: 0.807.
